Measured values taken from patent US5428020A (Matsueda; Rei, priority 1994, dated 1995).

Experiment: general procedure: Boc solid-phase peptide synthesis; benzhydrylamine resin; dicyclohexylcarbodiimide / 1-hydroxybenzotriazole
Settings: whole synthesis, TFA salt

## TFA.H-Phe-Gln-Val-Val-Cys(NpyS)-Gly-NH2 (FQVVC; Cys(NpyS); C-terminal Gly-NH2; TFA salt; printed: Phe-Gln-Val-Val-Cys)
  isolated mass: 415 mg
From the initial resin, scale of the general procedure 0.2g, 1.04 mmol
  isolated yield: 42%
